Amino acid sequences for entries named in this document (tags omitted). A change or cut given only in a name is not applied to a line headed by its entry.
UniProt O75604: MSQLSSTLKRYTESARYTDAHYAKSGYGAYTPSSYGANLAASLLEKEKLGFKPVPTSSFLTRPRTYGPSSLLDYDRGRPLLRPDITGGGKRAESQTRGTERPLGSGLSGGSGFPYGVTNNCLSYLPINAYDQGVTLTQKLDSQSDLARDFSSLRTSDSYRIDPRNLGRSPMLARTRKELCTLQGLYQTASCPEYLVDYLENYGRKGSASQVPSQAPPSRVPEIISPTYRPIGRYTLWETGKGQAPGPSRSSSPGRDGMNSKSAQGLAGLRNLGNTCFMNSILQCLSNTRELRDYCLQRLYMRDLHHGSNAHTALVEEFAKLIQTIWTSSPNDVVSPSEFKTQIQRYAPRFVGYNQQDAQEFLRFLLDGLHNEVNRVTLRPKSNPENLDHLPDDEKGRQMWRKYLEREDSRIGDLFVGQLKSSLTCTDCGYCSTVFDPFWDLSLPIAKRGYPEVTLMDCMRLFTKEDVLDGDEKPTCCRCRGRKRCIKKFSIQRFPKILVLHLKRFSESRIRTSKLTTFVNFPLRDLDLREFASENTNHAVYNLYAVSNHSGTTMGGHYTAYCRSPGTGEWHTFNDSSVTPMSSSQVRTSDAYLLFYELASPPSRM

“And” between values parts separate entries of the source, which are not always exact repeats. Equal entries are not always repeated. The shares of active, inactive and inconclusive entries below differ from those in the screen. Potencies beside an inconclusive call are fits to weak or partial responses and may not hold up. The source made the active and inactive calls. Calls follow the shape of the dose curve; as a rule, active = well fitted curve in the direction sought with a large enough effect; inconclusive = small, poorly fitted or top-dose-only effect, or another doubt; inactive = no such curve, though single readings can be large; an effect the other way counts as inactive or inconclusive.
System: not listed separately
Test: qHTS for Inhibitors of Ubiquitin-specific Protease USP2a Using CHOP2 as the Reporter: Cytotox Assay (AID 652170);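 as to activity change, negative = cytotoxicity: HCT116 human colon cancer cells at 600 per well; plate controls were DMSO-treated cells for no effect and wells without cells for full effect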
Conditions: HCT116 viability, CellTiter-Glo luminescence, 72 h; activity change, negative = cytotoxicity: at 46.1 µM (top of the series)
In short: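 Cytotoxicity read as ATP luminescence (CellTiter-Glo) after 72 hr compound treatment at 37 deg C. Cells: HCT116, 600/well in DMEM plus 10% FBS. Normalization between DMSO-treated cells and cell-free wells.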
With `Cc1ccc(S(=O)(=O)Nc2cnccc2C(=O)Nc2nc(-c3cc(Br)cs3)cs2)cc1` the Potency was inconclusive: 18.7 µM [cytotoxic, single point]. In the case of `CCCCC1CCC(C(=O)Nc2ccc(S(=O)(=O)Nc3cc(C)on3)cc2)CC1` (configuration not stated), the “activity change, negative = cytotoxicity” value was inactive: -5.01%. In the case of `COc1ccc(C(=O)Nc2nc(-c3ccccc3)cs2)cc1NS(=O)(=O)c1ccc(C)cc1`, the “activity change, negative = cytotoxicity” value was inactive: -19.1%.

Target: Ubiquitin carboxyl-terminal hydrolase 2 (Homo sapiens) (UniProt O75604)
Test: qHTS for Inhibitors of Ubiquitin-specific Protease USP2a Using CHOP2 as the Reporter: K484 Substrate (AID 652173);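 also: cleavage of internally quenched K48 di-ubiquitin substrate measured as rising fluorescence over time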
Conditions: USP2 cleavage of DiUb K48 IQF substrate, fluorescence; series mostly up to 57.5 µM; activity change, negative = inhibition: at the top concentration
In short: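 Kinetic fluorescence (Ex 525/Em 598) tracked cleavage of an internally quenched K48 di-ubiquitin substrate, added as a 100 nM solution. The enzyme was added as a 5 nM USP2 solution before compound pinning, with no-enzyme controls. Buffer: Tris pH 8, beta-mercaptoethanol, CHAPS.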
For `COC(=O)C1=CC[C@H](c2ccc(C)cc2)N(S(=O)(=O)c2ccc(C)cc2)[C@@H]1c1ccc(C(C)(C)C)cc1`, the Potency was inconclusive: 8.63 µM [inhibitor, full curve, poor fit]. For `O=C(Nc1ccc(C(=O)Nc2nccs2)cc1)c1ccc2ccccc2c1`, the Potency was active: 3.85 µM. In the case of `COc1cc(Cl)ccc1C(=O)Nc1nc(-c2ccccc2)cs1`, the Potency was active: 13.7 µM. For `Cc1ccc(S(=O)(=O)Nc2ccccc2C(=O)Nc2nc(-c3ccccc3)co2)cc1`, the Potency was active: 2.73 µM. In the case of `Cc1ccc(-c2cc(C(=O)O)c3cccc(C)c3n2)cc1C`, the “activity change, negative = inhibition” value was inactive: -26.2%. For `Cc1ccc(-c2cc(C(=O)Nc3ccc(Cl)cc3)c3ccccc3n2)cc1C`, the Potency was inconclusive: 19.3 µM [inhibitor, partial curve]. For `Cc1ccc(S(=O)(=O)Nc2cnccc2C(=O)NCCc2ccccc2)cc1`, the Potency was inconclusive: 30.6 µM [inhibitor, partial curve, poor fit]. With `CN(Cc1nccs1)S(=O)(=O)c1ccc(Nc2nc(-c3ccccc3)cs2)cc1` the Potency was inconclusive: 43.2 µM [inhibitor, partial curve]. With `Clc1nc(CN2CCOCC2)nc2sc3c(c12)CCCC3` the “activity change, negative = inhibition” value was inactive: -24.3%. In the case of `CC(=O)Nc1ccc(NC(=O)c2cc(-c3ccc(C)c(C)c3)nc3ccccc23)cc1`, the Potency was inconclusive: 19.3 µM [inhibitor, partial curve]. In the case of `COc1ccc(NC(=O)c2cc(-c3ccc(C)c(C)c3)nc3ccccc23)cc1`, the Potency was inconclusive: 9.68 µM [inhibitor, partial curve]. For `CC(=O)Nc1ccc(S(=O)(=O)Nc2nccs2)cc1`, the Potency was “inactive”. With `Cc1ccc(NS(=O)(=O)c2ccccc2C(=O)Nc2nc(-c3ccccc3)cs2)cc1` the Potency was active: 3.43 µM. With `O=S(=O)(Nc1nccs1)c1ccc(Nc2nc(-c3ccc(F)cc3)cs2)cc1` the Potency was active: 3.06 µM and active: 9.68 µM. With `COc1ccc(Cl)cc1C(=O)Nc1nc(-c2ccccc2)cs1` the Potency was active: 9.68 µM. In the case of `O=C(Nc1nc(-c2ccccc2)cs1)c1ccccc1-n1cnnn1`, the Potency was inconclusive: 34.3 µM [inhibitor, single point]. With `Cc1ccc(S(=O)(=O)Nc2cnccc2C(=O)Nc2ccncc2)cc1` the “activity change, negative = inhibition” value was inactive: -17.7%. With `Cc1ccc(S(=O)(=O)Nc2cnccc2C(=O)NCc2ccccc2)cc1` the Potency was inconclusive: 9.68 µM [inhibitor, partial curve, poor fit]. With `Cc1ccc(-c2cc(C(=O)Nc3ccc(C(F)(F)F)cc3)c3ccccc3n2)cc1C` the Potency was inconclusive: 30.6 µM [inhibitor, partial curve].

— PubChem BioAssay (NCATS)
Also: nearly all actives have a fitted effect of over 70% in size.
Potency is read from the fitted curve at half-maximal effect.
